The record followed here is PMC8901441.

Chains of the proteins cited; added tags and fusions are not shown.
UniProt Q07812: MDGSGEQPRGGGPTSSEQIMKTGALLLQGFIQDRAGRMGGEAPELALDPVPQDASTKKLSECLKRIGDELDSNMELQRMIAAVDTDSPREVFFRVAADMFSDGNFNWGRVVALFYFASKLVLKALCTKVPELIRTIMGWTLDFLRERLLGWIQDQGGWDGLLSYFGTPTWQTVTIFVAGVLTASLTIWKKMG

For the assay, the target named is T1, mEGFP-BAK (UniProt Q16611).
T1 sequence: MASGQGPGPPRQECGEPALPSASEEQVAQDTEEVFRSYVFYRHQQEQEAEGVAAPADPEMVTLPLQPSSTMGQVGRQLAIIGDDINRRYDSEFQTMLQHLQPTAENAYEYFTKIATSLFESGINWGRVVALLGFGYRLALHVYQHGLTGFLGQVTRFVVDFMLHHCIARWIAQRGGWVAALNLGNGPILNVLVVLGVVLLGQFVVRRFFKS
In words: co-IP; as a5, but control (untreated) cells.

Results are given in words; binding and its absence hold for the method and conditions named. In cells and extracts the contact can be indirect. Tags and fused reporters may be left off the sequences shown.

Turning to “BAX (endogenous, BAK KO U2OS cells) (from UniProt Q07812 1-192)”, the binding result was “no binding (condition: control (untreated) cells)”.
